About 1,400 (4.5%) of roughly 31,000 sequences were called active.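 How the source made its calls: active means median seed-adjusted z-score above 1 or below -1; inactive means the rest.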 Some of the results follow.

This note sets out measurements from PubChem BioAssay AID1347426 (Functional Genomics Laboratory (NCATS/FGL), 2020).

This experiment can be described thus: Novel Modifiers of Survival Motor Neuron (SMN) Protein: Gene Identification via Genome-wide siRNA Screen.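 Further: luminescence tracks full-length SMN protein made from the SMN2 reporter.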 To be noted: HEK293T SMN2-luciferase reporter, siRNA knockdown, 72 h; actives lie on both sides. The gist of the method: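 siRNA screen, 10418 genes ×3 siRNAs; 1 pmol/well, lipid reverse transfection into HEK293T SMN2-luc reporter line. 72 h, 37 °C, 5% CO2; ONE-Glo readout. Data: neg-ctrl normalized, log10, MAD; hit = MAD >1.0 or < -1.0.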
CAUUUUAGAUGGGCACAAUTT against GOSR2: the median seed-adjusted z-score was active: -1.25. Turning to GGACAAGAAUGAGCUCAGUTT against HSF1, the median seed-adjusted z-score was inactive: 0. In the case of GCUCUGUUUUCUACGUCUATT against SLC17A7 it was inactive: -0.0794; in that of AGUCCUUAAUGACCACCGATT against HDAC7, inactive: -0.41; in that of CUAUAUCCGCUUCUGUUUUTT against CCBL1, inactive: -0.0496.

Turning to CAAACGGACCAAAACAUCUTT against RNF2, the median seed-adjusted z-score is inactive: 0.354. In the case of CCAGGUGGGCAAAACUUAATT against VN1R4 it was inactive: -0.0601; in that of AGAGUACGUUGGAAAACUUTT against IL4, inactive: -0.192. In the case of GCCGAGUGUUUGUCCAUGATT against CLCA2 it was inactive: 0.669.

Take CUGAGAACGUGGAGUUUAATT against SIRPG: the median seed-adjusted z-score was inactive: -0.109.

In the case of CCACAACAGUGUUACGAAUTT against ZEB2, the median seed-adjusted z-score was inactive: 0.854. In the case of GGCUAGUUAUAAAGCAGGATT against ZNF621 it was inactive: 0. Turning to GGGUUAUCCUUGGAUUCAATT against DERL1, the median seed-adjusted z-score was inactive: 0.22.

With GGAACUUGGUUGUAGAGCUTT against SVIL, the median seed-adjusted z-score was inactive: 0.0852. For the sequence GGAUUACUACUUAAACAGATT against ECE2, the median seed-adjusted z-score is inactive: 0.794. As to GAAGUAUAUUGGUAUCCGATT against HTRA1, the median seed-adjusted z-score was inactive: 0.031. In the case of AGACCACGCAGCUCAUUGATT against SIGLEC1 it was inactive: -0.153. In the case of GAGUUUAUCAUGCUGGACATT against CHST6 it was inactive: 0.372; in that of CAACUUCGAUUAUCUUCAATT against DCK, inactive: 0.123; in that of GGUUAUGACAACACCGAAATT against CLASP1, inactive: 0.0472. To UGGUCAAGGUGUUUGAGAATT against SFRS17A belongs inactive: -0.389; to GGCUGUUGGUAACCUGAGATT against TF, inactive: 0.192; to AGAUCGUGGUGCAUCCAUATT against ELA1, inactive: 0.687. For the sequence GUUGCGACGUGAAUGGGAATT against PCSK5, the median seed-adjusted z-score was inactive: -0.158. In the case of CCGUAUCGGCGACAAACUATT against MPP7 it was inactive: 0.163.

With CGAGUAUGGUUUCCGCAAATT against UHMK1, the median seed-adjusted z-score is inactive: -0.269. To CGCCGACGGCUUUGUCAAATT against JUNB belongs inactive: -0.224; to GGCUUUGCCGAAGAAAACATT against KDSR, inactive: -0.108; to GAAAUACGGUUAUACAUCUTT against SIGLEC6, inactive: 0.0176. In the case of CCAACGAACUCCUUACUUATT against SCP2 it was inactive: 0.413; in that of GGUUCCGAAUCUAUUCCAATT against PLTP, active: 1.09.

In the case of UCACUUGUCUCUAGCCGCATT against ATP5G2, the median seed-adjusted z-score was inactive: 0.

With GAAGGACCGUGAACCUAUATT against CYP4F11, the median seed-adjusted z-score is inactive: 0.307. Regarding CCAAUAUUGUGGAUCCUUUTT against HTR4, the median seed-adjusted z-score is inactive: 0.444. In the case of GGUAGCUAGUUGUUUCAGATT against IFT88 it was inactive: 0.189; in that of GCCUCUCUCUAGCUCGAUUTT against ZBTB7B, inactive: -0.242. To GACCCUGACUGGAAAGUAUTT against MOV10 belongs inactive: 0.0759. To GAAGCAAUCUCAGUGGUUATT against LCOR belongs inactive: -0.0435. GGAUAUCAGUAUUGACAAATT against ASAP1: the median seed-adjusted z-score was inactive: 0.0592. As to AACUCUUCAUGGGACGAUUTT against PLA2G4F, the median seed-adjusted z-score is inactive: -0.0231. To GGUCAUCUUUCCGGAUAAATT against RGL4 belongs inactive: 0.201; to CCAGGAUGUUUUUCGAAAUTT against GNPTAB, inactive: 0.296. To GCCUGAAAUUUACACGAAUTT against DNTT belongs inactive: 0.316; to GGAAAGCAUUCUGCUCUUUTT against CST3, inactive: -0.188; to GUAUGAUUGAUACUACAAATT against GBP6, inactive: -0.0703. In the case of CAAAAUCCUUUGUGAGUAATT against GPR174 it was inactive: -0.324; in that of CCACCCUGCAGAAUCCUGUTT against CALML6, inactive: 0.0119; in that of AGAUCAUGCCUGAAGCUCATT against PPFIA4, inactive: 0.0399. Consider GACUAUUUGUUCAAGAUUATT against RAB19, for which the median seed-adjusted z-score was inactive: -0.0516. In the case of CGAGUACCGGGUCAAGAUATT against PLXND1 it was inactive: -0.064. GGAGCGGAAUGAACUCAAATT against RILP: the median seed-adjusted z-score is inactive: 0.503. In the case of AUGGAUAUGUGAAACCACATT against STAT5A it was inactive: -0.229. In the case of CGGUUGACACGGAUGGAAATT against CALML5, the median seed-adjusted z-score was inactive: -0.175. For the sequence GAACAUAUGUGAUGACCGUTT against CDH2, the median seed-adjusted z-score was inactive: -0.235. In the case of GAAUGGACUGGUACCUAUUTT against ALDOB it was active: -1.34.

For the sequence UGACAUCUUUGAGCGCAUCTT against HIST1H2BO, the median seed-adjusted z-score is inactive: 0.634. Regarding GGAAGUGAAAGGAUCAAGATT against RAD54B, the median seed-adjusted z-score is inactive: -0.257. To GAAAUUGACUGCUCGAGUATT against SRPX2 belongs inactive: 0.101; to GGAGUGAGAUCGUCGUAUUTT against DZIP1, inactive: -0.138. To CCUUACCACUCUUCGAGUATT against USP33 belongs inactive: -0.63; to GAACAUCGCAUAAUCCUGATT against ORC1L, inactive: -0.536; to GUUCGGAACUGAUACGAUUTT against DSG4, inactive: -0.0211. To GGUCUAUGCUGCGCUCAUATT against DOCK2 belongs inactive: 0.151. Turning to GGACUUCUUUUGUCAUGCATT against BCKDHB, the median seed-adjusted z-score was inactive: 0.366. In the case of GGAUUCAAGUUCGAAAUAUTT against ATP5C1 it was inactive: -0.0179; in that of GAAAGAGCCUGUUACCUAUTT against ACTR1A, active: 1.28. Regarding GGACGUGUCUAUUAUGUUGTT against WWP2, the median seed-adjusted z-score was inactive: -0.685. To ACAUGAAGGUGAAUCCUGUTT against COX4I2 belongs inactive: -0.0202. In the case of UGGACAUGCUGAACCCGGATT against ESPN it was inactive: 0.
